Measured values taken from PMC5681776.
Results are given in words; binding and its absence hold for the method and conditions named. Binding seen in cells or lysates may run through a third protein. Some binding calls cover weakened binding; strength is not graded here.

The chains behind the UniProt entries cited, without tags or fusion partners.
UniProt Q15554: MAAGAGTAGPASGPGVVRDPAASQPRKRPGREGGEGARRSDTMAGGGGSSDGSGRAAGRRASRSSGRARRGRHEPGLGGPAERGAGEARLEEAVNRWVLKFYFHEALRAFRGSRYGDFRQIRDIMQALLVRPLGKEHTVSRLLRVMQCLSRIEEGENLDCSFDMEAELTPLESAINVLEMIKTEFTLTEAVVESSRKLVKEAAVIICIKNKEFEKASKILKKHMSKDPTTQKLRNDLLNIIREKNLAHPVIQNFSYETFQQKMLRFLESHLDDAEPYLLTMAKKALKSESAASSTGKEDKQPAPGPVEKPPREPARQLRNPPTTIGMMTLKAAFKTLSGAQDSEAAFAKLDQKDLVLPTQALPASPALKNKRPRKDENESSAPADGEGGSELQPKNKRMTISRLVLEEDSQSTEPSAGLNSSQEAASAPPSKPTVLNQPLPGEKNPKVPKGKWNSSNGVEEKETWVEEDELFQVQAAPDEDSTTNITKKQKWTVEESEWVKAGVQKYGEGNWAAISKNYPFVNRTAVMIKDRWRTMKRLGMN

Legend:
[1] = target: telomeric repeat binding factor 2 (human (endogenous in DU 145 and HEK293T)) (UniProt Q15554); assay: proximity ligation; in situ PLA (Duolink kit) on HEK293T cells; 30 nuclei per group quantified; single primary antibodies, isotype control and PLA probes only as negative controls
[2] = target: telomeric repeat binding factor 2 (human (endogenous in DU 145 and HEK293T)) (UniProt Q15554); assay: co-IP; DU 145 or HEK293T cellular lysates in a low stringency buffer, immunoprecipitated with anti-TRF2 antibodies or control IgG; immunoblot of IP, input and immunodepleted fractions

B1: telomeric repeat binding factor 2-interacting protein 1 (protein, UniProt Q9NYB0 1-399)
chain: MAEAMDLGKDPNGPTHSSTLFVRDDGSSMSFYVRPSPAKRRLSTLILHGGGTVCRVQEPGAVLLAQPGEALAEASGDFISTQYILDCVERNERLELEAYRLGPASAADTGSEAKPGALAEGAAEPEPQRHAGRIAFTDADDVAILTYVKENARSPSSVTGNALWKAMEKSSLTQHSWQSLKDRYLKHLRGQEHKYLLGDAPVSPSSQKLKRKAEEDPEAADSGEPQNKRTPDLPEEEYVKEEIQENEEAVKKMLVEATREFEEVVVDESPPDFEIHITMCDDDPPTPEEDSETQPDEEEEEEEEKVSQPEVGAAIKIIRQLMEKFNLDLSTVTQAFLKNSGELEATSAFLASGQRADGYPIWSRQDDIDLQKDDEDTREALVKKFGAQNVARRIEFRKK
[1]
  binding: binds
[2]
  binding: binds
